Measurements reported in PubChem BioAssay AID1487 (National Center for Advancing Translational Sciences (NCATS), 2009).
Some of the results follow. These are further read-outs of the screen, such as a control signal, another cell line or another target. No call is given for them. Most of these compounds were active or inconclusive in the main read-out, so they are no random draw. Potencies come from curve fits of mixed quality, noted in brackets.

Assay: qHTS Assay for Modulators of Lamin A Splicing
Details: HeLa LMNA splicing GFP/RFP minigene ratio, 48 h
Procedure, shortened: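 Read-out is the ratio of GFP to DsRed2 object intensity, acquired by 488 nm laser-scanning cytometry on HeLa lamin A-EGFP minigene reporter cells. Compound incubation 48 hrs at 37 °C in Opti-MEM with 2% FBS; DMSO 0.5% final.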

[1] = measured here: GFP splicing reporter channel
[2] = measured here: RFP viability control channel

Compound	AC50 [1]	AC50 [2]
O=C1c2ccccc2C(=O)N1c1cccc2cccnc12	0.0794 µM [falling, partial curve, poor fit]	–
CC1=CN2C(=NC(=O)CC2(C)C(=O)N(CC(=O)NC2CCCC2)c2cc(C)cc(C)c2)C=C1 (stereo not drawn)	–	0.126 µM [falling, full curve]
Cc1cc(C)nc(SCc2ccc(C(=O)N/N=C/c3ccccn3)cc2)n1	7.94 µM [falling, partial curve, poor fit]	–
Cc1ccc(CNC(=O)NC23CC4CC(CC(C4)C2)C3)cc1	–	31.6 µM [rising, single point]
COc1ccc(OC)c(NC(=O)CCn2cccn2)c1	–	0.00794 µM [falling, full curve, poor fit]
CC(=O)NC1=NN(C(C)=O)C(C)(CC(=O)OC(C)(C)C)S1 (stereo not drawn)	0.224 µM [rising, partial curve, poor fit]	0.0447 µM [rising, full curve, poor fit]
Cc1ccc(Cn2ccnc2SCC(=O)Nc2ccccc2C(F)(F)F)cc1	0.0224 µM [rising, full curve, poor fit]	–
COc1ccc(OC)c(NC(=O)CN(c2ccc(OC)c(Cl)c2)S(C)(=O)=O)c1	14.1 µM [rising, single point]	–
Cc1cc(C)n(-c2nc3ccccc3c(=O)n2OCC(=O)N(C)C)n1	–	0.00447 µM [falling, full curve, poor fit]
CCc1nn2c(N)c(/C=C3\C=Nc4ccccc43)c(=O)nc2s1	–	20 µM [rising, partial curve, poor fit]
Cc1ccccc1Cn1ccc(NC(=O)c2cnn3c(C(F)(F)F)cc(-c4ccco4)nc23)n1	–	15.8 µM [rising, partial curve, poor fit]
CCC(=O)OC1CSc2nc3ccccc3n2C1 (stereo not drawn)	31.6 µM [rising, single point]	–
COc1ccccc1CNC(=O)C1CCN(S(=O)(=O)c2ccc3[nH]c(=O)ccc3c2)CC1	28.2 µM [falling, single point]	–
Cc1cc(C(=O)C(=O)N(C)C)c(C)n1-c1ccc(Cl)c(Cl)c1	0.398 µM [rising, full curve, poor fit]	20 µM [rising, partial curve, poor fit]
COC(=O)CCCC1=CC2=C(c3ccccc3)C(=O)C(C)(OC(=O)C3CCCC3)C(=O)C2=CN1Cc1ccc2c(c1)OCO2 (stereo not drawn)	0.126 µM [rising, partial curve, poor fit]	5.62 µM [rising, partial curve, poor fit]
Cc1ccc2nc(-c3ccc(NC(=S)NC4CC(C)(C)NC(C)(C)C4)cc3)sc2c1	–	17.8 µM [rising, single point]
CCCN(CC(=O)Nc1ccc(Cl)cc1Cl)C(=O)/C=C/c1ccco1	–	35.5 µM [falling, single point]
Cn1c(CSCc2ccc(F)cc2)nnc1SCC(=O)Nc1nccs1	0.562 µM [rising, full curve]	17.8 µM [rising, partial curve]
CCc1cc(/C(Cc2ccccn2)=N\O)c(O)cc1O	20 µM [falling, partial curve, poor fit]	5.62 µM [falling, partial curve, poor fit]
CC(c1cccs1)N(C)Cc1nc(CCc2ccccc2)no1 (stereo not drawn)	0.316 µM [rising, partial curve, poor fit]	0.141 µM [rising, full curve, poor fit]
CCc1cc(-c2[nH]ncc2-c2ccc3c(c2)OCO3)c(O)cc1O	–	7.08 µM [rising, partial curve]
Cc1ccc(C(=O)NCCSCc2ccc(Cl)cc2Cl)cc1[N+](=O)[O-]	–	28.2 µM [rising, partial curve]
O=C(C1CCCN(S(=O)(=O)c2ccc(Cl)cc2)C1)N(Cc1cccs1)C1CC1 (stereo not drawn)	15.8 µM [rising, partial curve, poor fit]	17.8 µM [rising, single point]
Cc1ccc2[nH]c(C)c(CCNC(=O)c3c(N)no[n+]3[O-])c2c1	12.6 µM [rising, single point]	31.6 µM [rising, single point]
CCOC(=O)C1=C(CSc2nc3ccccc3s2)NC(=O)NC1c1cc(C)ccc1C (stereo not drawn)	12.6 µM [falling, single point]	12.6 µM [falling, partial curve]
O=C(Nc1nnc(-c2ccc3c(c2)CCCC3)o1)c1ccccc1	–	3.98 µM [rising, full curve]
CCOC(=O)c1ccc(NC(=O)COc2cccc3c(=O)n(C)ccc23)cc1	35.5 µM [falling, partial curve, poor fit]	–
C#CCCOC(=O)N1C2=NC(C(=O)OC)=C(C(=O)OC)[C@@H]3N(Cc4ccccc4)c4ccccc4[C@]23C[C@H]1C(=O)OC	–	3.55 µM [rising, single point]

Nothing new here: entries from further up.
Compound	AC50 [1]	AC50 [2]
O=C1c2ccccc2C(=O)N1c1cccc2cccnc12	0.0794 µM [falling, partial curve, poor fit]	–
CC1=CN2C(=NC(=O)CC2(C)C(=O)N(CC(=O)NC2CCCC2)c2cc(C)cc(C)c2)C=C1 (stereo not drawn)	–	0.126 µM [falling, full curve]

Next part.

Compound	AC50 [1]	AC50 [2]
Cc1oc(-c2ccccc2)cc1C(=O)Nc1cccc2ccccc12	–	35.5 µM [rising, single point]
C=CCn1c(SCc2ccc(OC)cc2)nnc1-c1cccnc1	–	11.2 µM [rising, partial curve, poor fit]
O=C(COc1ccc(F)cc1)Nc1ccc(C(=O)OCc2cc(=O)n3nc(C4CC4)sc3n2)cc1	0.00316 µM [falling, full curve, poor fit]	0.00316 µM [falling, full curve, poor fit]
Cc1nc2ccccn2c1C(=O)CSc1ccc(Cl)cc1Cl	5.62 µM [rising, single point]	5.62 µM [rising, single point]
CCCCNC(=O)c1sc(=S)n2c1[nH]c(=O)c1ccccc12	–	14.1 µM [rising, single point]
COc1cc(Cl)c(C)cc1NC(=O)c1cccc(OC)c1OC	8.91 µM [rising, partial curve, poor fit]	15.8 µM [rising, partial curve]
Cc1ccc(-n2nc(C(=O)Nc3ccc(Br)cc3C)c(=O)n(C)c2=O)cc1	–	0.00501 µM [falling, full curve]
CN(Cc1ccco1)c1nc(-c2ccccc2Cl)nc2ccccc12	22.4 µM [rising, single point]	20 µM [rising, single point]
O=C(O)CN1C(c2ccccc2)=Nc2ccc(Br)cc2C1c1ccccc1 (stereo not drawn)	8.91 µM [falling, partial curve]	–
CCOC(=O)c1sc(NC(=O)CSc2nncs2)c(C(=O)OCC)c1C	11.2 µM [rising, partial curve]	–
COc1ccccc1N1CCN(S(=O)(=O)CCNC(=O)C2CC(=O)N(c3ccccc3)C2)CC1 (stereo not drawn)	1 µM [falling, full curve, poor fit]	–
COc1cc(N2CCCC2)c(OC)cc1/C=C(/C#N)c1cccc(Br)c1	–	31.6 µM [rising, single point]
CC(=O)C1=C(c2ccc(Cl)c(Cl)c2)N(C(C)=O)n2cnnc2S1	–	17.8 µM [rising, single point]
CC(NC(=O)c1cc2ccccc2o1)c1ccccc1 (stereo not drawn)	0.0178 µM [falling, full curve, poor fit]	0.02 µM [falling, full curve, poor fit]
COc1cc(NS(=O)(=O)c2ccc(F)cc2)c(OC)cc1NC(C)=O	5.62 µM [rising, full curve, poor fit]	–
CC(=O)S[C@H]1CC2=CC(=O)CC[C@@]2(C)[C@H]2CC[C@@]3(C)[C@H](CC[C@]34CCC(=O)O4)[C@@H]12	5.62 µM [falling, partial curve]	–
Cc1cccc(NC(=O)CSc2nc3ccccc3c3nc(CCc4c(C)n[nH]c4C)nn23)c1	10 µM [falling, partial curve, poor fit]	12.6 µM [falling, partial curve]
CC(C)CC(=O)N1CCN(S(=O)(=O)c2ccc3ccccc3c2)CC1	5.01 µM [rising, partial curve, poor fit]	17.8 µM [rising, single point]
O=C(NNC(=O)c1ccccc1-n1cccc1)c1ccc(F)cc1	0.00447 µM [rising, full curve, poor fit]	–
COc1ccccc1-c1cc(C(=O)NCCc2ccccc2)no1	–	15.8 µM [rising, single point]
Cc1cccc(-c2nsc(SCC(=O)NCc3ccco3)n2)c1	–	10 µM [rising, partial curve]
O=S(=O)(Nc1cccc(F)c1)c1ccc2[nH]c3c(c2c1)CCCCC3	35.5 µM [falling, single point]	35.5 µM [falling, partial curve]
COc1cccc(C(=O)Oc2c(CN3CCOCC3)cc(Cl)c3cccnc23)c1	–	15.8 µM [rising, single point]
COc1ccc(S(=O)(=O)Nc2cccnc2)c(Cl)c1Cl	–	14.1 µM [falling, partial curve, poor fit]
CCSc1cc(N2CCCC2)nc(-c2cccc(C)c2)n1	1.41 µM [rising, partial curve]	0.447 µM [rising, full curve]
CCOC(=O)c1ccc(OCC(=O)c2ccc(O)cc2O)cc1	–	35.5 µM [rising, single point]
Cc1cccc(NC(=O)C(C)n2cc([N+](=O)[O-])cn2)n1 (stereo not drawn)	0.00316 µM [rising, full curve, poor fit]	–
